Assay results published in PMC10147683.
No constants are given. Whether binding was seen depends on the method and setting. In cells and extracts the contact can be indirect. Some results given as binding are weak or reduced against the parent protein; the word gives no strength.

Chains of the proteins cited; added tags and fusions are not shown.
UniProt P18615: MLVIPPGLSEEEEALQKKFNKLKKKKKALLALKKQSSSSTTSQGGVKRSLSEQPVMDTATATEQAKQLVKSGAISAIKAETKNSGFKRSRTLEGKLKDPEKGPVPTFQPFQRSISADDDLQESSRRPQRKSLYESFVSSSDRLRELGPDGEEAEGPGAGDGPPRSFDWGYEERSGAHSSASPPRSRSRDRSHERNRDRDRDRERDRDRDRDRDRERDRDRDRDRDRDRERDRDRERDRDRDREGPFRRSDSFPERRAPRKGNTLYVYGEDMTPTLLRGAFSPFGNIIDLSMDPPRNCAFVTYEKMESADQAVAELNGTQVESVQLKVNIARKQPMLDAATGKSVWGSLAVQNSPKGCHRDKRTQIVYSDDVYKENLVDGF
UniProt P48436: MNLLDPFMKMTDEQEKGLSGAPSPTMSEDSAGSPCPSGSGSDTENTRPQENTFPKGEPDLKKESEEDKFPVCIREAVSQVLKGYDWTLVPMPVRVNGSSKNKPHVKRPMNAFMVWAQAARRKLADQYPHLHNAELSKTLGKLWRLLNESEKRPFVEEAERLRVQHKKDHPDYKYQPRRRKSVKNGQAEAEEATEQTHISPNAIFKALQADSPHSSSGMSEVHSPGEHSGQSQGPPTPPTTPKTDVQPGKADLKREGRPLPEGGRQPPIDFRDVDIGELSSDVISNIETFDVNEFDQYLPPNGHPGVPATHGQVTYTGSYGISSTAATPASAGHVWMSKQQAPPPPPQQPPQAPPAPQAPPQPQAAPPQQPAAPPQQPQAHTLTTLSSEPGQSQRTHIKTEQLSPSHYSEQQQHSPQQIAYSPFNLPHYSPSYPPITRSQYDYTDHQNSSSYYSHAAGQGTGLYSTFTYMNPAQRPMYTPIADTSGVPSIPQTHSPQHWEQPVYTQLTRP

Assays:
[1] = target: NELF-E (negative elongation factor subunit E) (human (endogenous in MCF7ras+SS)) (UniProt P18615); test: co-IP; NELF-E antibody (Abcam ab170104) IP from nuclear extracts of MCF7ras+SS cells treated with Dox for 72 h; protein G Dynabeads, overnight 4 °C, five washes in BC200 (200 mM KCl, 0.1% NP-40); western blot; normal rabbit IgG as control
[2] = target: NELF-E (endogenous in BT-549) (human (endogenous in BT-549)) (UniProt P18615); test: co-IP; BT-549 cells with endogenous levels of SOX9 and SLUG (Supplementary Fig. 7b); which protein was precipitated is not given

Molecule | binding [1] | binding [2]
SOX9 (doxycycline-induced in MCF7ras+SS) (from UniProt P48436 1-509) | binds | –
SOX9 (endogenous in BT-549) (from UniProt P48436 1-509) | – | binds

Continued, values first:

binding [1] | binding [2] | Molecule
– | binds | SLUG (endogenous in BT-549) (protein, UniProt O43623 1-268) MPRSFLVKKHFNASKKPNYSELDTHTVIISPYLYESYSMPVIPQPEILSSGAYSPITVWTTAAPFHAQLPNGLSPLSGYSSSLGRVSPPPPSDTSSKDHSGSESPISDEEERLQSKLSDPHAIEAEKFQCNLCNKTYSTFSGLAKHKQLHCDAQSRKSFSCKYCDKEYVSLGALKMHIRTHTLPCVCKICGKAFSRPWLLQGHIRTHTGEKPFSCPHCNRAFADRSNLRAHLQTHSDVKKYQCKNCSKTFSRMSLLHKHEESGCCVAH
binds | – | SLUG (doxycycline-induced in MCF7ras+SS) (protein, UniProt O43623 1-268) MPRSFLVKKHFNASKKPNYSELDTHTVIISPYLYESYSMPVIPQPEILSSGAYSPITVWTTAAPFHAQLPNGLSPLSGYSSSLGRVSPPPPSDTSSKDHSGSESPISDEEERLQSKLSDPHAIEAEKFQCNLCNKTYSTFSGLAKHKQLHCDAQSRKSFSCKYCDKEYVSLGALKMHIRTHTLPCVCKICGKAFSRPWLLQGHIRTHTGEKPFSCPHCNRAFADRSNLRAHLQTHSDVKKYQCKNCSKTFSRMSLLHKHEESGCCVAH
